{"source": "PubChem BioAssay AID1053208 (Peter MacCallum Cancer Centre, 2014)", "aim": "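Find knock-downs that sensitise mouse osteosarcoma cells to doxorubicin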 (primary screen)", "cell system": "mouse osteosarcoma cells, early-passage culture from an engineered mouse model of fibroblastic bone tumour", "reagents": "siRNA pool against mouse genes, 40 nM", "time to read-out": "about 120 h (48 h before drug, then 72 h with drug)", "challenge": "doxorubicin 100 nM for 72 h, roughly 30-40% inhibitory dose", "detection": "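Luminescent ATP signal taken as viability with or without 100 nM doxorubicin for 72 h; mean of two wells set against non-targeting siRNA and turned into robust z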", "direction": "viability z-score with doxorubicin: higher = more viable cells under doxorubicin; viability z-score without drug: higher = more viable cells with knock-down alone", "rule for the call": "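Called active if knock-down leaves viability unchanged without drug (z within -2 to 2) but lowers it with doxorubicin (z at or under -2)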", "note": "The whole screen tested about 17,000 reagents; shown is a part drawn at random. Of all reagents, 788 (4.7%) were called active. 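Calls rest on z-score classes alone; an extra cut-off of viability at most 70% of control was not applied to them.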 Entries without a mark were called inactive. Further read-outs or replicates are left out here."}
{"gene": "Plek", "combined z-score class": "no change with or without drug", "viability z-score with doxorubicin": 0.22, "viability z-score without drug": -1.52}
{"gene": "Fbxw15", "combined z-score class": "no change with or without drug", "viability z-score with doxorubicin": -1.12, "viability z-score without drug": -0.51}
{"gene": "Prkx", "combined z-score class": "no change with or without drug", "viability z-score with doxorubicin": -0.22, "viability z-score without drug": -1.01}
{"gene": "Tm9sf4", "combined z-score class": "no change with or without drug", "viability z-score with doxorubicin": 0.34, "viability z-score without drug": -0.17}
{"gene": "Ldlrap1", "combined z-score class": "no change with or without drug", "viability z-score with doxorubicin": -0.22, "viability z-score without drug": -0.84}
{"gene": "Isg20l2", "combined z-score class": "no change with or without drug", "viability z-score with doxorubicin": 0.45, "viability z-score without drug": 1.18}
{"gene": "Ubash3a", "combined z-score class": "no change with or without drug", "viability z-score with doxorubicin": -0.45, "viability z-score without drug": 0.51}
{"gene": "Ccser2", "combined z-score class": "no change with or without drug", "viability z-score with doxorubicin": 0.45, "viability z-score without drug": 0.84}
{"gene": "Aftph", "combined z-score class": "no change with or without drug", "viability z-score with doxorubicin": -0.45, "viability z-score without drug": -0.17}
{"gene": "Peli3", "combined z-score class": "no change with or without drug", "viability z-score with doxorubicin": -0.11, "viability z-score without drug": 0.51}
{"gene": "Avpi1", "combined z-score class": "no change with or without drug", "viability z-score with doxorubicin": 0, "viability z-score without drug": -0.67}
{"gene": "Tfpt", "combined z-score class": "low cell count with doxorubicin only (active)", "viability z-score with doxorubicin": -2.02, "viability z-score without drug": 0.17}

Looked up above.
Entry of Ubash3a under “viability z-score with doxorubicin”: -0.45
Prkx, viability z-score without drug = -1.01
